Data from patent publication US8309107B2, “Stable solutions of orlistat for pharmaceutical dosage forms” (Banner Pharmacaps, Inc., priority 2008, dated 2012).
Some results were stated once for a whole list of compounds, not compound by compound. At least one compound was matched to its structure with a doubt left.

Test: Stress study at 65° C., orlistat assay value by HPLC
Type: physicochemical
Details: 7 days, FIG. 1A

SMILES: CCCCCCCCCCC[C@@H](C[C@@H]1OC(=O)[C@H]1CCCCCC)OC(=O)[C@H](CC(C)C)NC=O [orlistat]
- orlistat remained intact (did not degrade): 30-50%
